# Results are given in words; binding and its absence hold for the method and conditions named. Binding seen in cells or lysates may run through a third protein. Some entries that bind do so weakly or less than the wild type. Where a sequence is shown, tags or fusion partners need not be part of it.
# Sequences of proteins named here, by UniProt entry; tags and fusion partners are left off.
# UniProt O00506: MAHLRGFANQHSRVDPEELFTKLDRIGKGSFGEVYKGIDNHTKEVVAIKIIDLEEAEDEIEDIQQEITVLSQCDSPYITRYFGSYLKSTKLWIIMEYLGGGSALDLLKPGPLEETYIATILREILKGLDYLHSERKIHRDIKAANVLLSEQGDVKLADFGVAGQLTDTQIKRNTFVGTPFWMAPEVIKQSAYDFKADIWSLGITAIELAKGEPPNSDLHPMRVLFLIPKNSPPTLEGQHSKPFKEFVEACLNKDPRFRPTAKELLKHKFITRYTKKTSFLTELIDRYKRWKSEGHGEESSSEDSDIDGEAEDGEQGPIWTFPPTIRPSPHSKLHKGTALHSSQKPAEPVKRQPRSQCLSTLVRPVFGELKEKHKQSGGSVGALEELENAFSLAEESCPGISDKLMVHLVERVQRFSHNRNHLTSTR
# T1: FLAG-MST2 wild type (human) (UniProt Q13188)
# T1 sequence: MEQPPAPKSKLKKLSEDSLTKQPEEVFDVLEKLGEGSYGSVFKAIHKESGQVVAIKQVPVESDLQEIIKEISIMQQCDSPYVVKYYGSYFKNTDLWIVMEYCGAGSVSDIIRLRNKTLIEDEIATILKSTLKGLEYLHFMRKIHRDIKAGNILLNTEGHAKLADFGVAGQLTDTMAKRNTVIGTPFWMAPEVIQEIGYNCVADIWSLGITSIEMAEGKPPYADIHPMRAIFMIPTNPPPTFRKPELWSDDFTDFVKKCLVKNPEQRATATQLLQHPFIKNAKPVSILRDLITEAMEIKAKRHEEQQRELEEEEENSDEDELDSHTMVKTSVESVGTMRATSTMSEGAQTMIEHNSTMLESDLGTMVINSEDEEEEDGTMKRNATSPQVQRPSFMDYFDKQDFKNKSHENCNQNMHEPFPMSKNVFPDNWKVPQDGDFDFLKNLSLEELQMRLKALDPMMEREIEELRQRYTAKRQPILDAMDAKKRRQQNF
# B1: SLMAP (sarcolemmal membrane-associated protein), endogenous (protein, UniProt Q14BN4 1-828)
# chain: MPSALAIFTCRPNSHPFQERHVYLDEPIKIGRSVARCRPAQNNATFDCKVLSRNHALVWFDHKTGKFYLQDTKSSNGTFINSQRLSRGSEESPPCEILSGDIIQFGVDVTENTRKVTHGCIVSTIKLFLPDGMEARLRSDVIHAPLPSPVDKVAANTPSMYSQELFQLSQYLQEALHREQMLEQKLATLQRLLAITQEASDTSWQALIDEDRLLSRLEVMGNQLQACSKNQTEDSLRKELIALQEDKHNYETTAKESLRRVLQEKIEVVRKLSEVERSLSNTEDECTHLKEMNERTQEELRELANKYNGAVNEIKDLSDKLKVAEGKQEEIQQKGQAEKKELQHKIDEMEEKEQELQAKIEALQADNDFTNERLTALQVRLEHLQEKTLKECSSLEHLLSKSGGDCTFIHQFIECQKKLIVEGHLTKAVEETKLSKENQTRAKESDFSDTLSPSKEKSSDDTTDAQMDEQDLNEPLAKVSLLKDDLQGAQSEIEAKQEIQHLRKELIEAQELARTSKQKCFELQALLEEERKAYRNQVEESTKQIQVLQAQLQRLHIDTENLREEKDSEITSTRDELLSARDEILLLHQAAAKVASERDTDIASLQEELKKVRAELERWRKAASEYEKEITSLQNSFQLRCQQCEDQQREEATRLQGELEKLRKEWNALETECHSLKRENVLLSSELQRQEKELHNSQKQSLELTSDLSILQMSRKELENQVGSLKEQHLRDSADLKTLLSKAENQAKDVQKEYEKTQTVLSELKLKFEMTEQEKQSITDELKQCKNNLKLLREKGNNKPWPWMPMLAALVAVTAIVLYVPGLARASP
# Target: T1, FLAG-MST2 wild type (human)
# Assay: co-IP; anti-FLAG M2 resin IP from cleared lysates of transfected 293FT cells (20 mM Tris-HCl pH 7.5, 150 mM NaCl, 0.2% Triton X-100; 2 hr at 4°C), immunoblot; siSIKE1 or siCCM3 in Figure 2D; STK25 WT or D158N overexpressed in Figure 2-figure supplement 1
molecule,measurement,value
"STK25 (Serine/Threonine kinase 25), endogenous (from UniProt O00506 1-426) (enzyme)",binding,binds
B1,binding,binds

# Reference: PMC7182433
